From doi:10.1101/2020.10.06.328815
These are yes or no findings as the source states them, for the method shown. In cells and extracts the contact can be indirect. Some binding calls cover weakened binding; strength is not graded here.

Amino acid sequences for entries named in this document (tags omitted). A change or cut given only in a name is not applied to a line headed by its entry. Residues count along the entry.
UniProt Q7M3K2, 1-140: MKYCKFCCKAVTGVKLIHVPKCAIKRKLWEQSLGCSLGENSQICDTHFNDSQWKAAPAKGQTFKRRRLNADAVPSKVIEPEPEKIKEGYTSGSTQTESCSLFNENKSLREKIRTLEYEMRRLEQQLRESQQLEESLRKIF

How the values were obtained:
[1] = target: truncated hTHAP9 H2 (residues 1-165) (human) (UniProt Q9H5L6); assay: co-IP
[2] = target: truncated hTHAP9 H1 (residues 1-176) (human) (UniProt Q9H5L6); assay: proximity ligation
[3] = target: truncated Drosophila P element transposase D (residues 1-140) (Drosophila) (UniProt Q7M3K2); assay: proximity ligation
[4] = target: truncated Drosophila P element transposase D (residues 1-140) (Drosophila) (UniProt Q7M3K2); assay: co-IP
[5] = target: truncated hTHAP9 H2 (residues 1-165) (human) (UniProt Q9H5L6); assay: proximity ligation
[6] = target: full length human THAP9 (hTHAP9) (human) (UniProt Q9H5L6); assay: pull-down

Molecule | binding [1] | also measured
L132A_H2H (from UniProt Q9H5L6 1-165) (domain or fragment) | binds | 
L128A_H2H (from UniProt Q9H5L6 1-165) (domain or fragment) | binds | 
L146A+L153A_H2H (from UniProt Q9H5L6 1-165) (domain or fragment) | binds | 
truncated hTHAP9 H1 (residues 1-176) (from UniProt Q9H5L6 1-176) (domain or fragment) |  | binding [2]: binds
L139A_H2H (from UniProt Q9H5L6 1-165) (domain or fragment) | binds | 
truncated Drosophila P element transposase D (residues 1-140) (from UniProt Q7M3K2 1-140) (domain or fragment) |  | binding [3]: binds; binding [4]: binds
H2(all)-H (L90A, L128A, L132A, L139A, L146A, L153A) (from UniProt Q9H5L6 1-165) (domain or fragment) | binds | 
hTHAP9 deletion mutant H_Del-H (residues 1-144) (from UniProt Q9H5L6 1-144) (domain or fragment) | binds | 
truncated hTHAP9 H2 (residues 1-165) (from UniProt Q9H5L6 1-165) (domain or fragment) | binds | binding [5]: binds
full length human THAP9 (hTHAP9) (protein, UniProt Q9H5L6 1-903) MTRSCSAVGCSTRDTVLSRERGLSFHQFPTDTIQRSKWIRAVNRVDPRSKKIWIPGPGAILCSKHFQESDFESYGIRRKLKKGAVPSVSLYKIPQGVHLKGKARQKILKQPLPDNSQEVATEDHNYSLKTPLTIGAEKLAEVQQMLQVSKKRLISVKNYRMIKKRKGLRLIDALVEEKLLSEETECLLRAQFSDFKWELYNWRETDEYSAEMKQFACTLYLCSSKVYDYVRKILKLPHSSILRTWLSKCQPSPGFNSNIFSFLQRRVENGDQLYQYCSLLIKSMPLKQQLQWDPSSHSLQGFMDFGLGKLDADETPLASETVLLMAVGIFGHWRTPLGYFFVNRASGYLQAQLLRLTIGKLSDIGITVLAVTSDATAHSVQMAKALGIHIDGDDMKCTFQHPSSSSQQIAYFFDSCHLLRLIRNAFQNFQSIQFINGIAHWQHLVELVALEEQELSNMERIPSTLANLKNHVLKVNSATQLFSESVASALEYLLSLDLPPFQNCIGTIHFLRLINNLFDIFNSRNCYGKGLKGPLLPETYSKINHVLIEAKTIFVTLSDTSNNQIIKGKQKLGFLGFLLNAESLKWLYQNYVFPKVMPFPYLLTYKFSHDHLELFLKMLRQVLVTSSSPTCMAFQKAYYNLETRYKFQDEVFLSKVSIFDISIARRKDLALWTVQRQYGVSVTKTVFHEEGICQDWSHCSLSEALLDLSDHRRNLICYAGYVANKLSALLTCEDCITALYASDLKASKIGSLLFVKKKNGLHFPSESLCRVINICERVVRTHSRMAIFELVSKQRELYLQQKILCELSGHINLFVDVNKHLFDGEVCAINHFVKLLKDIIICFLNIRAKNVAQNPLKHHSERTDMKTLSRKHWSSVQDYKCSSFANTSSKFRHLLSNDGYPFK |  | binding [6]: binds
